Measured values from PMC12293498.
No constants are given. Whether binding was seen depends on the method and setting. In cells and extracts the contact can be indirect. Here binding means that the protein was enriched with, or labelled near, the bait; the list need not be complete.

The chains behind the UniProt entries cited, without tags or fusion partners.
UniProt Q96SC8: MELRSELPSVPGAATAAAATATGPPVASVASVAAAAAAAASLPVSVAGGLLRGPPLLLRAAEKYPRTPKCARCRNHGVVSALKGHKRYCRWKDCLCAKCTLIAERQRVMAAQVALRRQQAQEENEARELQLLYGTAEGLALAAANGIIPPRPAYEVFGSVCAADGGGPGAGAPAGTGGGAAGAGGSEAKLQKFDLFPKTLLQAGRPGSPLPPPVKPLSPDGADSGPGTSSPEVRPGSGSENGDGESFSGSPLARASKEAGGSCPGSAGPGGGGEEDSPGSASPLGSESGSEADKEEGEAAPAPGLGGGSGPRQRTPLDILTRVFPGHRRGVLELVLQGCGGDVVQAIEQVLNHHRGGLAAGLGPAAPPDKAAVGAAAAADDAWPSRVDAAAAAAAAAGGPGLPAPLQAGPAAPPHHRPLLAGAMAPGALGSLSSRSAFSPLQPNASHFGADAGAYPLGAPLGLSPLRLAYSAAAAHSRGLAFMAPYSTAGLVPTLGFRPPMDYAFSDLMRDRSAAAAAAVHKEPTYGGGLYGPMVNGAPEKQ
UniProt P08238: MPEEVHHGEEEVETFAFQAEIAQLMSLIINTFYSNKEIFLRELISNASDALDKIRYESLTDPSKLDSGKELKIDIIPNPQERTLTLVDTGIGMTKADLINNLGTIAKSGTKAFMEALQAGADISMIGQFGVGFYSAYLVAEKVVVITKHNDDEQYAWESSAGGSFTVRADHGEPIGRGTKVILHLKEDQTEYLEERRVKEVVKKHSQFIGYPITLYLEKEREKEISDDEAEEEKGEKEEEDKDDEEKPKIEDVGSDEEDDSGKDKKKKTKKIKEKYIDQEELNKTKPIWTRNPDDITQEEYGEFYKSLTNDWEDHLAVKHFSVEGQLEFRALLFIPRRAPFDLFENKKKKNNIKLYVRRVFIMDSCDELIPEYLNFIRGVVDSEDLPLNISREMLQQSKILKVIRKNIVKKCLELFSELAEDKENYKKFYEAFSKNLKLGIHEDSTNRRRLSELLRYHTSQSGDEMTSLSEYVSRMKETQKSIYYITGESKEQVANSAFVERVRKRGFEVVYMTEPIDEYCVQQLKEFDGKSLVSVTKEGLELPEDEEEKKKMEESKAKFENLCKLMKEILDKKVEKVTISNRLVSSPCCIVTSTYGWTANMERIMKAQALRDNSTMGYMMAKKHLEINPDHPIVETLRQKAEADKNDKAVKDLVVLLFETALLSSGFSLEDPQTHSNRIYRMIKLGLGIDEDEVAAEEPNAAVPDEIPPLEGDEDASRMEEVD

Target: DMRTA2 overexpressed from the pCMV6-Flag-DMRTA2 plasmid (human) (UniProt Q96SC8)
Assay: affinity purification with mass spectrometry; protein mass spectrometry after overexpressing DMRTA2 in A549 cells; how the sample was isolated is not told

For “HSP90β, endogenous (from UniProt P08238 1-724)”, the binding was “binds”.
